# Primary screen of a compound library

Protein sequences, listed by entry. Tags and fused reporters are not part of them.
UniProt E9BF75, entry or part of it: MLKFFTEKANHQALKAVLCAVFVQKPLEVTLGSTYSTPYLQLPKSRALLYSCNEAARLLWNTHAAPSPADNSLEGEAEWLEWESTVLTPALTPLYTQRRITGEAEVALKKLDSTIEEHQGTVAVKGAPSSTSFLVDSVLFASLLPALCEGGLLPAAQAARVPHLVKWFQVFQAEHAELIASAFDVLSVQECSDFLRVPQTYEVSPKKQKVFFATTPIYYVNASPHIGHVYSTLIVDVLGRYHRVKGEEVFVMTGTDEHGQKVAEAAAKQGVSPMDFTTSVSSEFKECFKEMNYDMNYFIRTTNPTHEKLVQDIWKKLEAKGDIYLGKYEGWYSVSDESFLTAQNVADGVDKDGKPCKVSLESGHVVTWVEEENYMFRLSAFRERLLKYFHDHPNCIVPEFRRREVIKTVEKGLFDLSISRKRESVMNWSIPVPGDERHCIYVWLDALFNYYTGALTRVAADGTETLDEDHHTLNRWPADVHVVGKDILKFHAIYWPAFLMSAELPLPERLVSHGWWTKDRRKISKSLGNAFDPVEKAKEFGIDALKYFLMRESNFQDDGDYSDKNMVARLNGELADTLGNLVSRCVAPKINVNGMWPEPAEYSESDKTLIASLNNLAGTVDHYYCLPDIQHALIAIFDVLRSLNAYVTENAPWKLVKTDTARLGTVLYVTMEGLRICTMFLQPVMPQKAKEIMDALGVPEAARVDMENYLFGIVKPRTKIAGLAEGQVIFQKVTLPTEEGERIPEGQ

From ChEMBL document CHEMBL3988442, “University of Dundee, Small-Polar-MMV Screening Library” (2021).

A: 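Assay on Mycobacterium tuberculosis, filed only as a heat shock assay from Cornell; the read-out is not stated. The concentration is filed as 10 mM, unlikely as a test dose, so the dose is not known. Direction is inferred from retests: higher values go with stronger inhibition. About 69,000 compounds were tested under these conditions; 1.4% (about 930) showed 50% or more at least once.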
B: 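Primary screen of methionyl-tRNA synthetase; the read-out is not stated. Target: Methionyl-tRNA synthetase (putative), Leishmania donovani (UniProt E9BF75). The test concentration is not given. The values are filed as inhibition. Size under these conditions: about 68,000 compounds, about 24 of them at 50% or above in at least one test.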
C: 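Whole-cell assay for inhibitors of Mycobacterium tuberculosis growth, labelled Cornell in the record; the read-out is not stated. The concentration is filed as 10 mM, unlikely as a test dose, so the dose is not known. The record gives no direction; compounds strong in two other growth screens of this library score well above the rest, so higher reads as stronger inhibition. About 53,000 compounds were tested under these conditions; 1.7% (about 900) showed 50% or more at least once.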

Results are percentages, as filed. The record does not define 0% and 100%; most values in the screen are far below 50% and negative numbers occur (in some assays of this library far below -100). This is an unselected part of the compounds tested.

Result for CC(=O)N1CCC2(CCCN(C(=O)CCN3CCCCC3)C2)C1 (stereo not shown) was A: -5.842%; B: 6.111%. CS(=O)(=O)NCc1cnc2n1CCN(Cc1ccsc1)CC2.O=C(O)C(F)(F)F gave A: -9.783%; C: 11.37%. CN1CCN(C2COC3(CCN(Cc4cccs4)CC3)C2)CC1.O=C(O)C(F)(F)F.O=C(O)C(F)(F)F (stereo not shown) gave A: 2.397%; C: 12.96%. For CNC(=O)C1Cc2ccccc2CN1CCc1cccs1 (stereo not shown) the result was A: -20.96%; B: 13.92%. For Cc1cc(NS(=O)(=O)c2c[nH]c3ncccc23)no1 the result was A: 2.728%; B: 19.78%.

With CC(O)CN1CCN(Cc2coc(-c3ccc(Cl)cc3)n2)CC1 (stereo not shown) the screen gave A: 4.351%; B: 17.61%. Result for CCc1cc(N[C@@H](CC(C)C)C(N)=O)n2nc(C)c(C)c2n1 was A: 0.5%; B: 17.79%; C: 12.11%. For Cc1c(CCC(=O)N2CCOC(c3cnccn3)C2)cnn1C (stereo not shown) the result was A: -14.34%; B: 13.83%; C: 7.326%. Result for CCOc1ccc(Cl)c(C(=O)NC(C(N)=O)c2ccccc2)n1 (stereo not shown) was A: 1.157%; B: 10.33%; C: -9.539%. CN(C)CC1CN(C(=O)Cc2ccccc2)Cc2nccn2C1.O=C(O)C(F)(F)F (stereo not shown) read A: -21.72%; C: -21.42%.

Result for CCCC1(NC(=O)C(c2ccc(F)cc2)N(C)C)CC1 (stereo not shown) was A: 12.27%; B: 1.795%; C: 13.49%. CC(C)(C)CNC(=O)c1ccc(C(=O)O)nc1 read A: 11.75%; B: 10.76%; C: 11.56%. With C=C(C)COc1cccc(C(=O)N(CC)Cc2nccn2C)c1 the screen gave A: -17.19%; B: 6.628%; C: 11.94%. COc1cccc(CCC(=O)N2CCC[C@@H](N)[C@@H]2c2ccccc2F)c1 gave B: 9.969%. Cn1cnc2c1CCN(Cc1ccc(Cl)c3cccnc13)C2 read A: -35.7%; B: 3.876%; C: -7.746%.

O=C(NCCNc1cncc(Br)c1)c1ccc(O)cc1 gave A: 8.725%; B: 13.73%; C: 16.87%. For CCS(=O)(=O)N1CCN(C(=O)NC(C)C)CC2(CC(=O)N(C)C2)C1 (stereo not shown) the result was A: 8.105%; B: 8.759%; C: -5.542%. Result for CCc1ncncc1C(=O)N1CCCN(Cc2ccc(C#N)cc2)CC1 was A: -8.066%; B: 18.86%; C: 5.412%. CN(C)c1ncc(-c2cncnc2)c(C2CNCCO2)n1.Cl (stereo not shown) read A: -8.628%; C: 29.42%. Result for COCC(=O)N1CCCC1c1cc(N2CCN(C(C)=O)CC2)cc(C)n1 (stereo not shown) was A: -18.09%; B: -7.294%.

O=c1nc(SCc2cccnc2)c2c(n1CCO)CCC2 gave A: -3.773%; B: 11.33%; C: -0.9417%. Cc1ccc(NC(=O)[C@@H]2C[C@H](C(=O)O)CN(Cc3sccc3C)C2)cn1 gave A: -21.51%; B: 2.35%. Result for COc1ccc(OC)c(C2CC(=O)Nc3nc(N4CCOCC4)sc32)c1 (stereo not shown) was A: -14.93%; B: 17%; C: 77.37%. Result for CCCOCC(=O)N1CCc2nc(NC)nc(C(=O)N3CCCC3)c2C1 was A: -1.962%; B: 19.02%; C: 20.19%. For CC(C)Cc1cc(C(=O)N2CCC(Cc3cnn(C)c3)C2)cc(O)n1 (stereo not shown) the result was A: -2.327%; B: 8.815%; C: 2.79%.

COCCC1COC2(CCN(C(=O)Cc3ccccc3)CC2)C1 (stereo not shown) read A: -0.06568%; B: 5.97%; C: 25.98%. O=C(Cn1cnc2ccsc2c1=O)NCCCc1nnc2ccccn12 read A: -17.16%; B: 8.499%; C: -15.65%. For CCN(C(=O)CCn1cccn1)C1CC1 the result was A: -18.87%; B: 5.897%; C: -2.663%. For COc1nn(C)cc1C(=O)NCC(=O)NCc1cccnc1 the result was A: -0.6662%; B: 9.353%; C: 32.71%. O=C(CN1CCCCC1)Nc1ncc(Br)cc1Br gave A: -23.84%; B: 2.973%; C: -46.05%.

CCN(CCc1nccs1)C(=O)c1ccco1 gave A: 8.097%; B: 4.194%; C: -5.447%. With N[C@@H]1c2ccccc2C2(CCN(c3cccc(C(F)(F)F)n3)CC2)[C@H]1O the screen gave A: 25.21%; B: 25.15%; C: 27.54%. COC(=O)c1cc(CN2CCN(c3nc(C)cnc3C)CC2)ccc1O read A: -13.24%; B: 12.75%; C: 12.22%. Result for O=C(O)C(F)(F)F.[H][C@@]12C[C@H](C(=O)N3CCCCO3)CN(Cc3ccccn3)[C@]1([H])CCO2 was A: -1.74%; C: -19.88%.

Some entries from above, unchanged:

* CN(C)c1ncc(-c2cncnc2)c(C2CNCCO2)n1.Cl (stereo not shown) : A: -8.628%; C: 29.42%
* COCCC1COC2(CCN(C(=O)Cc3ccccc3)CC2)C1 (stereo not shown) : A: -0.06568%; B: 5.97%; C: 25.98%
* N[C@@H]1c2ccccc2C2(CCN(c3cccc(C(F)(F)F)n3)CC2)[C@H]1O : A: 25.21%; B: 25.15%; C: 27.54%